We go through six substances from patent US11292821B2, “Peptides and combination of peptides for use in immunotherapy against lung cancer, including NSCLC, SCLC and other cancers” (Immatics Biotechnologies GmbH, priority 2017, dated 2022).

For part of these data: Expression grades refer to the transcript from which the peptide derives; gene names, where given, were looked up from the sequence.

In one data set the test system is source genes. The data set can be described thus: Expression profiling of genes encoding the peptides (RNAseq). Particulars: RPKM, FIGS. 2A-2N. On the set-up: species or system human.
Take “SEQ ID No.: 222: peptide found in MMP1 (gene looked up) (NPFYPEVEL; listed as Homo sapiens)”: the “exon expression of source gene in cancer samples versus normal tissues” value is listed as “over-expressed”.

Take “SEQ ID No.: 326: peptide found in MMP12 (gene looked up) (QEMQHFLGL; listed as Homo sapiens)”: the “exon expression of source gene in cancer samples versus normal tissues” value is recorded as “over-expressed”. As to “SEQ ID No.: 1: peptide found in ADAMTS12 (gene looked up) (QYDPTPLTW; listed as Homo sapiens)”, the “exon expression of source gene in cancer samples versus normal tissues” value is recorded as “over-expressed”. As to “SEQ ID No.: 2: peptide found in MMP12 (gene looked up) (VWSNVTPLKF; listed as Homo sapiens)”, the “exon expression of source gene in cancer samples versus normal tissues” value is reported as “over-expressed”. “SEQ ID No.: 84: peptide found in MMP12 (gene looked up) (YVDINTFRL; listed as Homo sapiens)”: the “exon expression of source gene in cancer samples versus normal tissues” value is recorded as “over-expressed”.

The subject of the next data set is tumor tissue samples. The data set can be described thus: Identification and relative quantitation of HLA-presented tumor associated peptides by LC-MS (presentation profile). The note with it: cancer entities on which the tumor-associated peptide was found presented (HLA ligandome LC-MS); abbreviations per table footnote. On the set-up: species or system human.
“114 (ILDERQVLL; listed as Homo sapiens) [compound 114]”: the “Peptide Presentation on cancer entities” value is reported as “AML, BRCA, CRC, GBC, GC, HCC, HNSCC, MEL, NHL, OC, OSCAR, PACA, UBC, UEC”.
